Test results: paper PMC2635961
These are yes or no findings as the source states them, for the method shown. Some binding calls cover weakened binding; strength is not graded here. For part of these data: Sequences can lack the tags named with a protein.

Amino acid sequences for entries named in this document (tags omitted). Residues count along the entry.
UniProt P38261, residues 523-753: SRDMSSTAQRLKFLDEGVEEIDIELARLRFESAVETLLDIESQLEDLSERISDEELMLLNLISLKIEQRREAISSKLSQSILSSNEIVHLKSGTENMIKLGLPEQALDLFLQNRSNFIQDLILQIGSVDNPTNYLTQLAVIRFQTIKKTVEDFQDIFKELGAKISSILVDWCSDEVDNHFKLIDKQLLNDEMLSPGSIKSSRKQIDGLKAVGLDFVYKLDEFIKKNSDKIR
UniProt P19658, residues 63-623: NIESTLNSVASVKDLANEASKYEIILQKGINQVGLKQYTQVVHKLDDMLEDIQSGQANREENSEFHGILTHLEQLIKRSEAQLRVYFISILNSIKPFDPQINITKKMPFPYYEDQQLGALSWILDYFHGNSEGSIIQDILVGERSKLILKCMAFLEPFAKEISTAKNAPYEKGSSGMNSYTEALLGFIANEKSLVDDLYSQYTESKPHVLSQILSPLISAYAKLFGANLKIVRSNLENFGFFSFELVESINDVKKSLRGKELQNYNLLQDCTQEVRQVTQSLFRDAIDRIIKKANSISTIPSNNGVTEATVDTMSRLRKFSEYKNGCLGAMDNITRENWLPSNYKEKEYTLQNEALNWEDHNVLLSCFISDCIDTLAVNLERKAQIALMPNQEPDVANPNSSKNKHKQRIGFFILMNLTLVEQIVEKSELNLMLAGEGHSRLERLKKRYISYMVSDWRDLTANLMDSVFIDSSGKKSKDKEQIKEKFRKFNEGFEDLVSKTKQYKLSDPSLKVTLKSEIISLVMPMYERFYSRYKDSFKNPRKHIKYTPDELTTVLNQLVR

Legend:
Experiment in all cases: pull-down; MBP or MBP-tagged proteins immobilised on amylose resin; equimolar purified Sec10(145–827) (1 µM) added; 10 mM HEPES pH 7, 100 mM NaCl, 0.1% NP-40, 1 mM DTT; 1 h at 4°C; three washes; Western blot with α-His5 and α-MBP; both purified
[1] = target: MBP-Exo84CT (residues 523–753) (yeast) (UniProt P38261)
[2] = target: MBP-Exo70p (residues 63–623) (yeast) (UniProt P19658)
[3] = target: T1, MBP-Sec6p (residues 1–805) (yeast) (UniProt P32844)
T1 sequence: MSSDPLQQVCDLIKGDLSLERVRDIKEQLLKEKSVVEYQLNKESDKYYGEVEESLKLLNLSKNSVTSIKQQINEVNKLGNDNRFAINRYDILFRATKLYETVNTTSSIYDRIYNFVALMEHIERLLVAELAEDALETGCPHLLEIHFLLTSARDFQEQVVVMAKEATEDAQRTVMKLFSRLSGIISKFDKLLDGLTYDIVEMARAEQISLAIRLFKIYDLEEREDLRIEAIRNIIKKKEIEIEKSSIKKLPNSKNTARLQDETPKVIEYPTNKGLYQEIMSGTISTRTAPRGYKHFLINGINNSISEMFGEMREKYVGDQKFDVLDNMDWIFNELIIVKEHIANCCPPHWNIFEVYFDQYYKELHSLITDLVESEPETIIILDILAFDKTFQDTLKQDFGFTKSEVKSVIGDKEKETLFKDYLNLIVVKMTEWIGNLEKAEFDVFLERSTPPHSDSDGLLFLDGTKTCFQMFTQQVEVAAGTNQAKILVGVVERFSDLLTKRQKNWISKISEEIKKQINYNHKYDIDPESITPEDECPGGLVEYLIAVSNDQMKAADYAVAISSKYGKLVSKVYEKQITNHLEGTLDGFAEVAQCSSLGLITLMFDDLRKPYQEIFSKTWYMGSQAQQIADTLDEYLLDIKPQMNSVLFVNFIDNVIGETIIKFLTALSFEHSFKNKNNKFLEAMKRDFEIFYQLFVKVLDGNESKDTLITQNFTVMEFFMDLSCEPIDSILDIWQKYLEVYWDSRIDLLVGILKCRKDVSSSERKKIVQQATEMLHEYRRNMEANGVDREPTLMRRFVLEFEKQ

Measured: binding

B1: Sec10(145–827) (domain or fragment, UniProt Q06245 145-827)
chain: GDKLETAIKKKQNYIQSVELIRRYNDFYSMGKSDIVEQLRLSKNWKLNLKSVKLMKNLLILSSKLETSSIPKTINTKLVIEKYSEMMENELLENFNSAYRENNFTKLNEIAIILNNFNGGVNVIQSFINQHDYFIDTKQIDLENEFENVFIKNVKFKEQLIDFENHSVIIETSMQNLINDVETVIKNESKIVKRVFEEKATHVIQLFIQRVFAQKIEPRFEVLLRNSLSISNLAYVRILHGLFTLFGKFTKSLIDYFQLLEIDDSNQILSTTLEQCFADLFSHYLYDRSKYFGIEKRSLEAILVDMTSKFTVNYDKEINKRVLLDKYKEKLSTNVDAFMHSPRGNTHSRQDSTSRSKLSQFNSFLKTHLDKDHLSLNRTNTLSDSFNNSSSSTQYDVANNSSSLVNSSFTASDIDNSPNSPANYSLNDVDSMLKCVVESTARVMELIPNKAHLYILEILKIMFLGIVDSYMEIALEVAYWKICKVDINKTAGVVNLNFLKFISMSTEILDLLSISIKSIFLPLLNNSPEIKAQIIEMTNSQIQKMEILINIILQETITVISTKFSAILCKQKKKDFVPKSQELLDQDTLPAIEIVNILNLIFEQSSKFLKGKNLQTFLTLIGEELYGLLLSHYSHFQVNSIGGVVVTKDIIGYQTAIEDWGVASLIDKFATLRELANLFTVQP
binds weakly: all assays above
